Consider one molecule from publication PMC5494299.

Assay [1] has as its target MBP‐CagV (Helicobacter pylori). The experiment in a line: pull-down; purified MBP‐tagged bait or MBP alone (10 μg) on amylose–agarose beads, mixed O/N with H. pylori cell extract (1 mg·mL^−1); 50 mM Tris‐HCl, 150 mM NaCl, pH 7.4, 1% TritonX‐100, 0.2% sodium deoxycholate, 2 mM DTT, 2 mM EDTA; western blot; only the target purified. For orientation: A western blot detects proteins with antibodies after separation by electrophoresis.

The target of assay [2] is MBP‐CagF (Helicobacter pylori). The assay is described as above.
The target of assay [3] is CagV (Helicobacter pylori (endogenous in strain 26695)). The experiment in a line: co-IP; anti‐CagV antibody cross‐linked (DMP) to protein‐A agarose; detergent‐solubilized extracts of wild‐type H. pylori 26695 and ΔcagV/cagV (also of ΔcagT, ΔcagM, Δcagδ); 1× PBS pH 7.4, 2 mM EDTA, 2 mM DTT, 1% TritonX‐100, 0.2% sodium deoxycholate; 4 °C O/N; western blot.

No constants are given. Whether binding was seen depends on the method and setting. Binding seen in cells or lysates may run through a third protein. For part of these data: Binding calls can cover weak binding; strength is not graded here.

B1: CagZ (protein, UniProt B5Z6P9 1-199)
chain: MELGFNETERQKILDSNKSLMGNANEVRDKFIQNYASSLKDSNDPQDFLRRVQELRINMQKNFISFDVYYNYLNNLVLASYNRCKQEKTFAESTIKNELTLGEFVAEISDNFNNFMCDEVARISDLVASYLPREYLPPFIDGNMMGVAFQILGIDDFGRKLNEIVQDIGTKYIILSKNKTYLTSLERAKLITQLKLNLE
Take B1: the binding entry in assay [1] is reported as “binds”; in assay [2], “binds”; in assay [3] it was “no binding”.
